Measurements published in PMC9950447, “Targeting USP10 induces degradation of oncogenic ANLN in esophageal squamous cell carcinoma” (Cell Death and Differentiation, 2022).
These are yes or no findings as the source states them, for the method shown. Binding seen in cells or lysates may run through a third protein. These calls come from enrichment with a bait or labelling near it, and not all partners need be listed.

The chains behind the UniProt entries cited, without tags or fusion partners. Where a name states a change or a piece, a line headed by the entry shows the natural chain unless it says otherwise. A line that says so, or that is headed by a name, gives the form on record, which may keep a tag or linker.
USP10, endogenous (Q14694-3, form named): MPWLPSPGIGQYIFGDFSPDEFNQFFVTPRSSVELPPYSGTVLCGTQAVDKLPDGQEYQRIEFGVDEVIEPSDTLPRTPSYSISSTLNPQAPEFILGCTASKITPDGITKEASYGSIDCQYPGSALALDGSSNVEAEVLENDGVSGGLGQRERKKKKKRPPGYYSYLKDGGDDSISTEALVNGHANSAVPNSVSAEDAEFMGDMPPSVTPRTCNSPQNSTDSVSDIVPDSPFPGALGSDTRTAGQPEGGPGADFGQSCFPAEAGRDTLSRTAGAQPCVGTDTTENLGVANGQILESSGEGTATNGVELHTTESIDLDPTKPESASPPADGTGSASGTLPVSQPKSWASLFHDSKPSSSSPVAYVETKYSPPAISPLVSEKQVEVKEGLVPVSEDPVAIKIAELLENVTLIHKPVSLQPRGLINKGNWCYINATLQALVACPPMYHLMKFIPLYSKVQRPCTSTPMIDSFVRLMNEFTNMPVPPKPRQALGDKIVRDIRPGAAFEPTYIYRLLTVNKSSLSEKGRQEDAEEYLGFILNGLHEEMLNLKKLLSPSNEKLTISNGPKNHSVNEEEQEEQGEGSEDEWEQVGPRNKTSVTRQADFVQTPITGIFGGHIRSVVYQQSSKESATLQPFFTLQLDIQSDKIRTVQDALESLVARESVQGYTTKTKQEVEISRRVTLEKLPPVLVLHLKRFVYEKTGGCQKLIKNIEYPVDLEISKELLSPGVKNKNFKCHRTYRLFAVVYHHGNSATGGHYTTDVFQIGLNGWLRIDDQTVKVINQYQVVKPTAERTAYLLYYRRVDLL
UniProt Q93009: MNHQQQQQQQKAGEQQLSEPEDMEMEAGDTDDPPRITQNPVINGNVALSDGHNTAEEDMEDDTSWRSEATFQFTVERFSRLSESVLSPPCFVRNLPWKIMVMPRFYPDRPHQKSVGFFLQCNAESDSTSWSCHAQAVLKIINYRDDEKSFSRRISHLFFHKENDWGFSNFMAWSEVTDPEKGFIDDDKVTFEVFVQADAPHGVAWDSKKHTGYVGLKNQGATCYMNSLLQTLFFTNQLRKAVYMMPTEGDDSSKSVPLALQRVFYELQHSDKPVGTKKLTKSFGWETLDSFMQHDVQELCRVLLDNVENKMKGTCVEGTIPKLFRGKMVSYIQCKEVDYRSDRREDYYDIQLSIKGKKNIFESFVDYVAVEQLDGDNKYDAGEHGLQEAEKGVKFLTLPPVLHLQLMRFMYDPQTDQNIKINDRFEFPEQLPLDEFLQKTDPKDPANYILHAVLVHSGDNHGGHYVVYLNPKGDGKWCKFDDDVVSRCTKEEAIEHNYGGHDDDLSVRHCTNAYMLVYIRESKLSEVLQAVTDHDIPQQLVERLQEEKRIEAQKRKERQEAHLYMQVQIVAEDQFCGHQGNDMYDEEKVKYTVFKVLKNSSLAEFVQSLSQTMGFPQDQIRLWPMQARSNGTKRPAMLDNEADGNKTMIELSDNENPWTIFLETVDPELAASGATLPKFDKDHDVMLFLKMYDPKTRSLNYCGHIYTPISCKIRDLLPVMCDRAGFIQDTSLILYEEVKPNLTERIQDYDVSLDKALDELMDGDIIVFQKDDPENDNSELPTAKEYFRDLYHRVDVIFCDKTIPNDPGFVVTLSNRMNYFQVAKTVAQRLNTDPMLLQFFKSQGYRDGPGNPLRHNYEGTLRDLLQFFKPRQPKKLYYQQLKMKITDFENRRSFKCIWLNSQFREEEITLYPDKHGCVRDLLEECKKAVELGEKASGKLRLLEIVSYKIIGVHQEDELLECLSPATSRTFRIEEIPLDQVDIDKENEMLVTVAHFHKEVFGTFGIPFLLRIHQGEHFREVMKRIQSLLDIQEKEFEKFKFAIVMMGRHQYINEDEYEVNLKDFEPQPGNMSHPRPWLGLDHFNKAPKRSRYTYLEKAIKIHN
UniProt Q9Y5T5: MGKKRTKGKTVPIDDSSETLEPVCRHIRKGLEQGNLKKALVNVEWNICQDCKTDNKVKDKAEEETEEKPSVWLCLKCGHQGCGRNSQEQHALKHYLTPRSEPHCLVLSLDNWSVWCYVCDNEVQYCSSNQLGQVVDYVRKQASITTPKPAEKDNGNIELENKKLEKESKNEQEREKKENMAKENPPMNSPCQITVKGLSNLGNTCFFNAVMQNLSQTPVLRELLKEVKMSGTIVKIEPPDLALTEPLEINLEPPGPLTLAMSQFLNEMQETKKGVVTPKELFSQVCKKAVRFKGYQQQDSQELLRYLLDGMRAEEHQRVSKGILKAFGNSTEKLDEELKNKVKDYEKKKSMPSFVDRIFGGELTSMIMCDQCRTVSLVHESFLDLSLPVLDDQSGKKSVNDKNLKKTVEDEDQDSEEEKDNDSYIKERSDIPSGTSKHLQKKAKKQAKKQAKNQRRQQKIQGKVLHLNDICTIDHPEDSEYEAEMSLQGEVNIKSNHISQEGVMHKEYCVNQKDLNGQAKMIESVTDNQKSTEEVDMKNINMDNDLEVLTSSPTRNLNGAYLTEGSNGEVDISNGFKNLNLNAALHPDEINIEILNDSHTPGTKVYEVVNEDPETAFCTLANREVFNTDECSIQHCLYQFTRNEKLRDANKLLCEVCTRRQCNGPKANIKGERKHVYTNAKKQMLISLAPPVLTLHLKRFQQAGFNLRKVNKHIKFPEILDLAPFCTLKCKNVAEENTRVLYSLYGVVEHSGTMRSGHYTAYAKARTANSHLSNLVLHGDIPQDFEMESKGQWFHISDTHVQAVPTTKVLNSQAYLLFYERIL

T1: Anillin (ANLN), endogenous (human (endogenous in KYSE150 and KYSE30)) (UniProt Q9NQW6)
T1 sequence: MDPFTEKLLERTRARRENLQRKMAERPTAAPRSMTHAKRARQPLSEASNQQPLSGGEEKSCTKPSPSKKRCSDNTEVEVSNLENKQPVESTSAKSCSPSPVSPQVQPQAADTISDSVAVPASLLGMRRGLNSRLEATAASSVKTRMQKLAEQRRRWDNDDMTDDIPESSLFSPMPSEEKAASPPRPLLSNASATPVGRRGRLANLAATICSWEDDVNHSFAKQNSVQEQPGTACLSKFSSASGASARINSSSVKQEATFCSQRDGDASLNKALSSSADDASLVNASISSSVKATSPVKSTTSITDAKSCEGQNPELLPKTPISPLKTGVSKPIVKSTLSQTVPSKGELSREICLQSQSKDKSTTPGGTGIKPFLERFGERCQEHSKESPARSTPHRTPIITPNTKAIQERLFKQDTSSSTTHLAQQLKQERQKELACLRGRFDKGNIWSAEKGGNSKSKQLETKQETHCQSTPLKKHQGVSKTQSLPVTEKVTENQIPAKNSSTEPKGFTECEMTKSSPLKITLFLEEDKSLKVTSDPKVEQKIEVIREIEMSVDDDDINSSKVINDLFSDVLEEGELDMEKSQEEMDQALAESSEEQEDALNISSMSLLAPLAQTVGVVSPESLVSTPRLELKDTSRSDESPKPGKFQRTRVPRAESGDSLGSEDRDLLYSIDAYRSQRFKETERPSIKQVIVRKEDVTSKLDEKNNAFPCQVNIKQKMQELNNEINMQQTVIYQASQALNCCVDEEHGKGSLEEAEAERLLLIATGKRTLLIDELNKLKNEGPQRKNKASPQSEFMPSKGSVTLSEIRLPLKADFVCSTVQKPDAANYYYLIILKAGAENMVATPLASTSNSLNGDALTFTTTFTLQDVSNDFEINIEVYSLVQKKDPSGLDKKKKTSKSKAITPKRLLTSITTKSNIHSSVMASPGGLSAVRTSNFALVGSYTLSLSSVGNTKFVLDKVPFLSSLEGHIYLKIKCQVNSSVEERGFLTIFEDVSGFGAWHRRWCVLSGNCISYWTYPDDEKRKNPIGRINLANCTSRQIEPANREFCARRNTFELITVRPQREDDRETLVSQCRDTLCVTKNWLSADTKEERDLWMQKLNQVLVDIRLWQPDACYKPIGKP

B1: USP39, endogenous (protein, UniProt Q53GS9 1-565)
chain: MSGRSKRESRGSTRGKRESESRGSSGRVKRERDREREPEAASSRGSPVRVKREFEPASAREAPASVVPFVRVKREREVDEDSEPEREVRAKNGRVDSEDRRSRHCPYLDTINRSVLDFDFEKLCSISLSHINAYACLVCGKYFQGRGLKSHAYIHSVQFSHHVFLNLHTLKFYCLPDNYEIIDSSLEDITYVLKPTFTKQQIANLDKQAKLSRAYDGTTYLPGIVGLNNIKANDYANAVLQALSNVPPLRNYFLEEDNYKNIKRPPGDIMFLLVQRFGELMRKLWNPRNFKAHVSPHEMLQAVVLCSKKTFQITKQGDGVDFLSWFLNALHSALGGTKKKKKTIVTDVFQGSMRIFTKKLPHPDLPAEEKEQLLHNDEYQETMVESTFMYLTLDLPTAPLYKDEKEQLIIPQVPLFNILAKFNGITEKEYKTYKENFLKRFQLTKLPPYLIFCIKRFTKNNFFVEKNPTIVNFPITNVDLREYLSEEVQAVHKNTTYDLIANIVHDGKPSEGSYRIHVLHHGTGKWYELQDLQVTDILPQMITLSEAYIQIWKRRDNDETNQQGA

Each molecule was assayed against T1, Anillin (ANLN), endogenous (human (endogenous in KYSE150 and KYSE30)) (assay: affinity purification with mass spectrometry; endogenous ANLN enriched by immunoprecipitation from KYSE150 cells, SDS-PAGE, in-gel trypsin digestion, LC-MS/MS).

binding, binds:
USP10, endogenous (from UniProt Q14694-3 1-802) (enzyme)
USP7, endogenous (from UniProt Q93009 1-1102) (enzyme)
USP16, endogenous (from UniProt Q9Y5T5 1-823) (enzyme)
B1
